Source: PubChem BioAssay AID493014 (National Center for Advancing Translational Sciences (NCATS), 2011)
Out of some 340,000 compounds screened, about 170 (0.05%) were called active. The inconclusive results got no clear call from the source; some entries with a clear call stand among them for comparison. Calls follow the shape of the dose curve; as a rule, active = well fitted inhibition curve with a large enough effect in the signal ratio, with a control signal flat (not every such curve was filed as active); inconclusive = small, poorly fitted or top-dose-only effect, or effect the other way, or a change in a side signal; inactive = flat fitted curve, though single readings scatter; the % refers to the signal ratio. Where the call is inconclusive, the potency comes from a doubtful curve fit.

Test: qHTS Assay to Find Inhibitors of Chronic Active B-Cell Receptor Signaling;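 as to activity change, negative = inhibition: plate controls were basal doxycycline-induced cells for no effect and cells given 10 µM MG132 for full effect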
Details: ABC-DLBCL IkBa-CBG/CBR reporter, luminescence ratio (green luciferase fused to IkBa over red control in TMD8 lymphoma cells), 4 h; activity change, negative = inhibition: at 46.1 µM (top of the series)
Summary of the method: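 TMD8 ABC-DLBCL cells carrying doxycycline-inducible green luciferase fused to IkappaBalpha plus unfused red luciferase were exposed to compounds (up to 46 uM) for 4 hrs at 37C. Activity came from the overlap-corrected green/red luminescence ratio.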
Potency is read from the fitted curve at half-maximal effect.

Row | Structure (SMILES) | activity change, negative = inhibition | Potency
1 | Cc1cnc(NC(=O)Nc2ccc(OCc3ccccc3)cc2)c(Br)c1 | inconclusive: -9.4% | 
2 | COc1ccc(CNC(=O)CCCNS(=O)(=O)c2cccc3nonc23)cc1 | inconclusive: 21.6% | 
3 | Cc1ccc(C(=O)Nc2cccc(C(=O)N3CCN(C)CC3)c2)cc1 | inconclusive: 2.24% | 
4 | O=C1CN(C(=O)COc2ccc([N+](=O)[O-])cc2Cl)c2ccccc2N1 | inactive: -0.238% | 
5 | CN1CCN(c2ccccc2NC(=O)c2cc3ccccc3o2)CC1 | inactive: -13% | 
6 | CN(C)c1ccc(/C=N/NC(=O)c2ccc3c(c2)OCCO3)cc1 |  | inconclusive: 11.2 µM [falling, partial curve]
7 | Cc1ccc(S(=O)(=O)N(CC(O)CN2C(=O)NC(C)(C)C2=O)c2cccc([N+](=O)[O-])c2)cc1 (stereo not given) | inconclusive: -19.9% | 
8 | COC(C[C@H]1O[C@H]1[C@H](O)[C@@H](C)OCc1ccccc1)OC | inconclusive: 11.2% | 
9 | CCOC(=O)c1c(NC(=O)CCN2C(=O)c3ccccc3C2=O)sc(C(=O)OC(C)C)c1C | inconclusive: -0.238% | 
10 | O=C(Cc1cc(=O)[nH][nH]1)N/N=C/C=C/c1ccccc1 | inconclusive: -0.0162% | 
11 | O=C(c1ccc([N+](=O)[O-])s1)N1CCCc2ccccc21 | inconclusive: -0.823% | 
12 | COc1cc(C2C(C(=O)c3ccc(C)o3)=C(O)C(=O)N2c2cc(C)on2)ccc1OCc1ccccc1 (stereo not given) | inconclusive: 4.71% | 
13 | O=C(C1CCCN(S(=O)(=O)c2ccccc2)C1)N1CCCc2ccccc21 (stereo not given) | inconclusive: 1.35% | 
14 | N#Cc1cc(-c2ccc(Cl)cc2)cnc1Sc1ccc(F)cc1 | inactive: 17.4% | 
15 | Cc1ccc(-n2c(SCC(=O)N3CC(=O)Nc4ccccc43)nc3ccccc3c2=O)cc1C | inconclusive: 4.22% | 
16 | O=C(CBr)c1ccc([N+](=O)[O-])c(CS(=O)(=O)c2ccc(Cl)cc2)c1 |  | inconclusive: 25.1 µM [rising, partial curve, poor fit]
17 | O=C(c1ccco1)N1CCN(C2CC(=O)N(c3ccccc3)C2=O)CC1 (stereo not given) | inconclusive: 9% | 
18 | CCC(N=c1cc(-c2ccc(OC)cc2)oc2ccc(C)cc12)C(=O)O (stereo not given) | inconclusive: 3.1% | 
19 | CN(C(=O)c1ccc2c(c1)N(Cc1ccccc1F)C(=O)c1ccccc1S2)C1CCCCC1 | inconclusive: 22.9% | 
20 | CCOC(=O)c1c(C)oc2c1c(CN1CCN(C(=O)OCC)CC1)c(O)c1ccccc12 | inconclusive: -9.2% | 
21 | COc1ccc2c(c1)SCC(=O)N2C |  | inconclusive: 25.9 µM [falling, partial curve, poor fit]
22 | O=C(N/N=C/c1cn[nH]c1-c1ccccc1)c1ccco1 | inconclusive: -14.2% | 
23 | O=C(Nc1ccc(S(=O)(=O)N2CCCCCC2)cc1)c1[nH]ncc1[N+](=O)[O-] | inconclusive: 8.24% | 
24 | Cc1[nH]c2ccccc2c1Cc1n[nH]c(=S)n1C | inconclusive: 12.2% | 
25 | COc1ccc(-c2nn(-c3ccccc3)cc2CNCCN2CCOC2=O)c(F)c1 | inactive: -1.93% | 
26 | CC(C)CCc1noc(CN2CCN(c3ccc(Cl)cn3)CC2)n1 | inconclusive: 6.15% | 
27 | CCOc1ccccc1CN1CCC(Oc2ccc(C(=O)NCc3ccccn3)cc2)CC1 | inactive: -4.89% | 

Row | Structure (SMILES) | activity change, negative = inhibition | Potency
28 | COc1ccc2oc(C(=O)Nc3nc(-c4ccccn4)cs3)c(C)c2c1 | inconclusive: 3.42% | 
29 | Cc1ccc(CNC(=O)c2nn(C)c(C)c2[N+](=O)[O-])cc1 | inactive: 0.657% | 
30 | Cc1ccc(NC(=O)[C@@H](CC(C)C)NC(=O)[C@@H]2Cc3ccccc3CN2)cc1 | inconclusive: 3.44% | 
31 | COc1cc(NC(=O)c2ccco2)c(OC)cc1NC(=O)CSc1ncc(-c2ccc(F)cc2)[nH]1 | inconclusive: 2.25% | 
32 | CC(=O)N1CCN(c2ccc(NC(=O)c3ccc4c(c3)OCO4)cc2)CC1 | inconclusive: -16.4% | 
33 | N#C/C(=C\c1ccc(Sc2nc3ccccc3[nH]2)o1)c1ccccc1 | inconclusive: -21.1% | 
34 | COCC(C)N1C(=O)Cc2c1nc(N)c1c(N)nc(N3CCN(c4ccccc4F)CC3)c(C#N)c21 (stereo not given) | inactive: 6.41% | 
35 | Cc1ccc(NC(=O)COC(=O)C2(CC(=O)NC(C)(C)C)CCCC2)cc1C | inconclusive: 2.19% | 
36 | CC1(C)Cc2c(C#N)c(N3CCN(C(=O)c4ccco4)CC3)nc(-c3ccco3)c2CS1 |  | inconclusive: 14.6 µM [rising, partial curve]
37 | COC(=O)c1cccc(-n2c(C)cc(C=O)c2C)c1C | inconclusive: -5.64% | 
38 | COc1ccc(CNC(=O)COC(=O)c2cc(S(=O)(=O)N3CCOCC3)ccc2O)cc1OC | inconclusive: 3.92% | 
39 | CC(C)Oc1ccc(CNC(=S)N/N=C/c2cccnc2)cc1 |  | inconclusive: 15.8 µM [falling, single point]
40 | COc1cc(CNCc2cccs2)cc(Br)c1OC | inconclusive: 10.4% | 
41 | Cc1ccc(S(=O)(=O)/C(C#N)=C/c2c(N3CCOCC3)nc3c(C)cccn3c2=O)cc1 |  | inconclusive: 10 µM [rising, partial curve, poor fit]
42 | O=C(CSc1ncn(-c2ccccc2)n1)Nc1nc2c(s1)CCCC2 | inconclusive: 0.864% | 
43 | COc1ccc(C(Nc2ccc(S(=O)(=O)NCC3CCCO3)cc2)C(=O)NC(C)(C)C)cc1OC (stereo not given) | inactive: 17.3% | 
44 | Cc1ccc(-c2sc(C(=O)NN)c(C)c2C#N)cc1 | inconclusive: -14.1% | 
45 | FC(F)(F)c1cc(-c2ccccc2)nc2ncnn12 | inconclusive: -1.47% | 
46 | COc1ccc(-c2csc(NC(=O)C3CSC4(C)CCC(=O)N34)n2)cc1 (stereo not given) | inactive: 0.0487% | 
47 | CC1S/C(=N/N=C2CCC(C(C)(C)C)CC2)NC1=O (stereo not given) | inconclusive: 12.2% | 
48 | O=C(CSc1nc(NS(=O)(=O)c2ccccc2)cc(=O)[nH]1)Nc1ccc(Cl)cc1 |  | inconclusive: 10 µM [falling, partial curve, poor fit]
49 | O=C(c1cc(-c2ccc(Cl)c(Cl)c2)on1)N1CCN(c2ccccc2)CC1 |  | inconclusive: 5.01 µM [falling, full curve]
50 | CCCOc1ccc(OC(=O)c2c(-c3ccccc3Cl)noc2C)cc1 | inconclusive: 13.6% | 
51 | Cc1cc(C(=O)CSc2nc(N)cc(N)n2)c(C)n1CC1CCCO1 (stereo not given) | inactive: 4.51% | 
52 | CC1(C)Cc2c(C#N)c(SCCC#N)nc(N3CCOCC3)c2CS1 | inconclusive: 2.9% | 
53 | CCOC(=O)c1sc(=S)n(-c2ccc(Cl)cc2)c1C | inconclusive: 19.7% | 
54 | COc1cccc(OC)c1C(=O)Nc1cccc(S(=O)(=O)Nc2ccccc2Cl)c1 | inconclusive: -8.88% | 

Among those listed so far, three contain a tert-butyl group.
Row | Structure (SMILES) | activity change, negative = inhibition | Potency
35 | Cc1ccc(NC(=O)COC(=O)C2(CC(=O)NC(C)(C)C)CCCC2)cc1C | inconclusive: 2.19% | 
43 | COc1ccc(C(Nc2ccc(S(=O)(=O)NCC3CCCO3)cc2)C(=O)NC(C)(C)C)cc1OC (stereo not given) | inactive: 17.3% | 
47 | CC1S/C(=N/N=C2CCC(C(C)(C)C)CC2)NC1=O (stereo not given) | inconclusive: 12.2% | 

The results go on:

Row | Structure (SMILES) | activity change, negative = inhibition | Potency
55 | O=C(Nc1ccc(OC(F)(F)F)cc1)c1cnc2n(c1=O)CCS2 |  | inconclusive: 0.103 µM [rising, full curve, poor fit]
56 | Cc1ccc(-n2ncc3c(Nc4cccc(C)c4)ncnc32)cc1 |  | inconclusive: 2.51 µM [rising, full curve, poor fit]
57 | CCCC(=O)Nc1ccccc1NC(=O)CN(C)S(=O)(=O)c1ccccc1 | inconclusive: -1.45% | 
58 | Cn1nnnc1SCc1ccc([N+](=O)[O-])cc1 | inconclusive: 11.5% | 
59 | CC(NC(=O)CCc1nnc(-c2ccc(-c3ccccc3)cc2)o1)c1nc2ccccc2[nH]1 (stereo not given) |  | inconclusive: 7.08 µM [falling, partial curve]
60 | CCCN(CCC)Cc1c(C(=O)N/N=C/C(C)=C\c2ccccc2)nnn1-c1nonc1N | inactive: 0.668% | 
61 | CCc1nc(SCC(=O)NNC(=O)c2ccc(OC)cc2)c2ccccc2n1 | inactive: -9.57% | 
62 | CC1(C)CC(C)(O)P(=O)(c2ccccc2)O1 (stereo not given) | inconclusive: 1.84% | 
63 | O=C(Nc1ccc2oc(-c3ccncc3)nc2c1)c1ccccc1F | inconclusive: -11.6% | 
64 | O=C(NCc1ccco1)C1CC(c2ccc(Cl)cc2)=NO1 (stereo not given) |  | inconclusive: 11.2 µM [falling, partial curve]
65 | CCN1C(=O)c2cccc3c(NC(=O)C4CCCCC4)ccc1c23 | inconclusive: 4.52% | 
66 | Cc1cc(Nc2cc(Cl)cc(Cl)c2)nc(N)n1 | inconclusive: -6.11% | 
67 | COC(=O)c1c(-c2c(Cl)cccc2Cl)noc1NC(=O)NN1CCCCC1 | inactive: -19.8% | 
68 | COC(=O)[C@@H]1CCCN1C(=O)c1cc(COc2cccc3cccnc23)on1 | inconclusive: -17% | 
69 | Cc1occc1C(=O)/C(C#N)=C/c1ccc(O)c(Br)c1 |  | inconclusive: 3.98 µM [falling, partial curve, poor fit]
70 | COc1cccc(-c2nnc(SCc3nc4ccccc4s3)n2C)c1 | inconclusive: 25.7% | 
71 | Cc1ccc[n+](CC(=O)c2ccc(-c3ccccc3)cc2)c1 | inactive: 3.9% | 
72 | CC(Sc1n[nH]c(N)n1)c1nc2scc(-c3cccs3)c2c(=O)[nH]1 (stereo not given) | inconclusive: 6.06% | 
73 | O=C(CCc1nc(-c2ccccc2)no1)NCc1ccco1 | inconclusive: 12.1% | 
74 | CCO[C@H]1OC(C(=O)NC2CC2)=C[C@@H](c2csc3ccccc23)[C@@H]1CCCO |  | inconclusive: 10 µM [falling, partial curve, poor fit]
75 | COc1ccccc1C(=O)NC(=S)Nc1cccnc1Cl |  | inconclusive: 31.6 µM [rising, single point]
76 | N#Cc1c(C(F)(F)F)cc(-c2ccccc2)nc1SCC(=O)Nc1sc2c(c1C#N)CCC2 | inactive: 6.31% | 
77 | CC(C)NC(=O)N(C)C[C@H]1Oc2ccc(NC(=O)C3CCCCC3)cc2C(=O)N([C@H](C)CO)C[C@@H]1C | inconclusive: 0.392% | 
78 | Cc1cccc(NC(=O)C2CCCN2S(=O)(=O)c2cccc3cccnc23)c1 (stereo not given) | inconclusive: 0.461% | 
79 | Cc1ccc(OCC(=O)Nc2cc(S(=O)(=O)N3CCCCC3)ccc2N2CCN(C)CC2)c(C)c1 | inconclusive: 4.69% | 
80 | COC(=O)c1[nH]c(C)c(/C(O)=C2\C(=O)C(=O)N(CCN3CCOCC3)C2c2ccccc2OC)c1C (stereo not given) | inconclusive: -3.91% | 
